The values below come from PubChem BioAssay AID977622 (Broad Institute, 2014).

Assay [1] in a line: wild-type E. coli growth inhibition versus h38 humanized strain – h38 mutant RFP, wild-type GFP, cherry-pick, dose response (AID 977622). The note with it: E. coli mixed culture, 24 h, total growth OD600 at 50 uM.
Assay [2] has as its system E. coli h38 humanized mutant ribosome RFP fluorescence, mixed culture, 24 h. The assay is described as above. The note with it: h38 mutant RFP at 50 uM.

Each structure is given as a SMILES string. Some of the results follow. Further columns of the screen follow, without active or inactive calls.

Consider `O=C(NCCc1ccc(Cl)cc1)c1ccc2nc[nH]c2c1`, for which the activity change was -18.9% in assay [1] and -7.05% in assay [2]. The like results for `C[C@H](CO)N1C[C@H](C)[C@@H](CN(C)C)OCCCC[C@H](C)Oc2ccc(NC(=O)Nc3cccc4ccccc34)cc2C1=O` were, in that order, -5.25% and -6.39%. On to `COc1cc(C(=O)Nc2nnc(S(=O)(=O)N3CCCCCC3)s2)cc(OC)c1OC`, for which the activity change in assay [1] was -71%; in assay [2], -5.65%. For `CC(=O)c1ccc(-c2cccc([C@H]3[C@@H]4C=CC[C@@H](C)[C@@H]4C(=O)N3Cc3ccccc3)c2)cc1` the same measures were 2.97% and 15.8%. For `Cc1nc(Sc2ccc(Cl)cc2)c(C#N)c(C)c1[N+](=O)[O-]` the same measures were -52.5% and 4.59%. For `CN(C)S(=O)(=O)c1cccc(C(=O)Nc2ccc3c(c2)CCC3)c1`, the activity change in assay [1] is -25.3%. On to `Cc1cc(NC(=O)c2sc(Nc3ccc(F)c(Cl)c3)nc2N)no1`, for which the results for the activity change in assay [1] and in assay [2] were -19.1% and 209%, respectively. For `O=C1OCCC1Sc1nc2ccccc2c(=O)n1Cc1ccccc1` (centres undefined) the same measures were -39.4% and -14.9%.

For the molecule `Cc1ccc(OCc2nc(C#N)c(N3CCCCC3)o2)cc1`, the values for the activity change in assay [1] and in assay [2] were -59.1% and 36.5%, respectively.

In the case of `Cc1ccc(NC(=O)c2ccc([N+](=O)[O-])o2)cc1S(=O)(=O)N1CCOCC1`, the values for the activity change in assay [1] and in assay [2] were -21.5% and -35.5%, respectively. For `O=C(Nc1ccc(Cl)cc1)N1C[C@@H]2[C@H](c3ccccc31)[C@H](CO)N2C(=O)c1ccccn1` the same measures were -91.2% and -53.9%. Take `CCN(CC)CCCN(C(=O)c1ccco1)c1nc(-c2ccc(C)cc2)cs1`: the activity change in assay [1] was -31.4%; in assay [2], 23%. For `Nc1nc(NCc2ccco2)nc(N2CCN(Cc3ccccc3)CC2)c1[N+](=O)[O-]` the same measures were -62.5% and -1.87%.

On to `CCN(CC)S(=O)(=O)c1cccc(NC(=O)CNc2cccc(S(=O)(=O)N3CCCC3)c2)c1`, for which the activity change in assay [1] is -5.45%; in assay [2], -6.07%. For `COc1ccc(C(=O)Nc2ccc(Nc3ccccc3)cc2)cc1[N+](=O)[O-]` the same measures were -27% and -31.7%. For `O=C(Nc1ccccc1F)N1CCCCN2[C@@H](CO)[C@H](c3ccc(C#Cc4cccnc4)cc3)[C@@H]2C1` the same measures were -6.31% and 9.92%.

Consider `CCOC(=O)c1c(C)nsc1NCc1ccccc1`, for which the activity change in assay [1] is -24.1%. In the case of `Cc1c(NC(=O)c2ccc([N+](=O)[O-])o2)cccc1-c1nc2ncccc2o1`, the activity change in assay [1] was -11.2%; in assay [2] it was -34.3%. For `O=C(c1ccccc1)c1ccc2nc(-c3ccc(NC(=O)c4ccccc4Br)cc3)[nH]c2c1`, the figures for the activity change in assay [1] and in assay [2] were -3.03% and -23.6%, respectively. The like results for `CCOc1ccccc1N1CC(C(=O)Nc2cccc(S(=O)(=O)N3CCCCC3)c2)CC1=O` (centres undefined) were, in that order, -18% and 0.695%. For `CCCC#C/C(CCC)=C1\c2ccccc2C(=O)N1c1ccccc1` the same measures were 2.23% and 44.6%. Turning to `COc1cccc(NC(=O)c2ccc(NCCCN3CC(C)CC(C)C3)c([N+](=O)[O-])c2)c1` (centres undefined), the activity change in assay [2] is -0.387%.

For the molecule `CC(=O)Oc1c(Cl)cc(N(C(C)=O)S(=O)(=O)c2ccccc2)c2ccccc12`, the activity change in assay [1] was -51%; in assay [2] it was 27.4%. The like results for `O=S(=O)(c1ccc(Cl)cc1)N1CCN=C1SCc1cccc(Cl)c1` were, in that order, -6.7% and 52.5%. For `Cc1ccc(S(=O)(=O)NCc2c(-c3ccccc3)noc2C)cc1` the same measures were -38.3% and 9.6%. As for `COc1cccc(NC(=O)C(C)SCc2ccccc2)c1` (centres undefined), the activity change was -3.38% in assay [1] and -0.103% in assay [2].

Take `COc1ccc(CNC(=O)c2cc3c(s2)CN(Cc2ccccc2)C3)cc1`: the figures for the activity change in assay [1] and in assay [2] were -48.3% and 3.16%, respectively. For `Nc1nc(Nc2ccccc2)nc(NCc2ccccc2)c1[N+](=O)[O-]` the same measures were -35.9% and -27.8%. For `Cc1cc(C)c(OCCN(C)Cc2ccccc2)c(Br)c1` the same measures were -6.5% and 3.73%.

As for `C[C@H](CO)N1C[C@H](C)[C@@H](CN(C)Cc2ccncc2)OCc2ccccc2-c2c(n(C)c3ccccc23)C1=O`, the activity change in assay [1] is -76%; in assay [2], -3.44%. As to `O=S(=O)(c1ccccc1)N1CC[C@@H]2[C@H](CO)Nc3ccc(Br)cc3[C@@H]21`, the activity change in assay [1] was -56.1%; in assay [2], -22.7%. With `CCOc1ccccc1C(=O)OCC(=O)NCCc1ccc(OC)cc1`, the activity change in assay [1] is -47.8%; in assay [2], 3.21%. For `O=C1c2ccccc2C(c2nnnn2Cc2ccccc2)N1CCc1ccc(O)cc1` (centres undefined) the same measures were -41% and -33.1%. The like results for `O=C(O)C1(Nc2ccc([N+](=O)[O-])cc2[N+](=O)[O-])CCCC1` were, in that order, -14.3% and -49.7%. For `CCOc1cccc(-c2cc(-c3n[nH]c(=S)n3CC)c3ccccc3n2)c1` the same measures were -16.5% and 8.04%.

Turning to `CC(C)N1CC2(CC(c3ccccc3C(F)(F)F)=NO2)CN1C(=O)c1ccco1` (centres undefined), the values for the activity change in assay [1] and in assay [2] were -21.9% and 58.1%, respectively.

Consider `O=C(O)C1CCCCC1C(=O)Nc1ccc(OCc2ccccc2)cc1` (centres undefined), for which the activity change was -42.2% in assay [1] and 2.03% in assay [2]. The like results for `O=C(Nc1cc(F)ccc1F)N1CCCCN2[C@@H](CO)[C@H](c3ccc(-c4ccncc4)cc3)[C@@H]2C1` were, in that order, 0.557% and 6.29%. For `CC1Cc2ccccc2N1C(=O)c1ccc(N2CCCCC2)c([N+](=O)[O-])c1` (centres undefined) the same measures were -50.1% and -8.2%. For `Cc1cc(Br)c2nc(-c3ccc(Cl)cc3)c(Cc3cccc(Cl)c3)n2c1` the same measures were -6.91% and 21.5%. Consider `O=C(CCNC(=O)c1ccccc1)Nc1ccc(Cl)c(S(=O)(=O)N2CCCCC2)c1`, for which the activity change in assay [1] is -49%; in assay [2], -27.7%. For `CCN(CC)CCN(C(=O)c1ccccc1OC)c1nc2ccc(F)cc2s1`, the activity change is -26.1% in assay [1] and 1.33% in assay [2]. For the molecule `Fc1ccc(-c2nc3ccc(Cl)cn3c2Cc2cccc(Cl)c2)cc1`, in assay [1], the activity change is -37.3%. `CCN(CC)CCN(C(=O)c1ccc2c(c1)OCCO2)c1nc2c(Cl)cccc2s1`: the activity change in assay [1] was -37.6%; in assay [2], -10.8%. The like results for `CCCC(=O)Nc1cccc(C(=O)Nc2ccccc2OCC)c1` were, in that order, -14.8% and -18%.

As to `O=C(Nc1ccccc1N1CCOCC1)C1CCCCN1S(=O)(=O)c1ccccc1` (centres undefined), the activity change in assay [1] is -24.4%. In the case of `Clc1ccc(-c2nc(NCCCN3CCOCC3)c3ccccc3n2)cc1`, the activity change in assay [1] was -38.1%; in assay [2], -5.75%. `CNC(=O)c1ccsc1NC(=O)c1ccc2c(c1)CCCC2`: the activity change in assay [1] was -20.7%; in assay [2] it was -4.25%. On to `O=C(NCc1ccc(S(=O)(=O)Nc2ccccc2Cl)s1)c1ccccc1`, for which the results for the activity change in assay [1] and in assay [2] were -25% and -32.8%, respectively.

On to `O=C(NCc1nnnn1-c1ccc(Cl)cc1)c1ccc([N+](=O)[O-])o1`, for which the results for the activity change in assay [1] and in assay [2] were -41.8% and -13.4%, respectively. For `CN(C(=O)c1ccc(F)cc1)c1ccc(OCC(=O)Nc2ccccc2C(=O)O)cc1` the same measures were -15.9% and -8.64%.

For the molecule `COc1ccc(CC(=O)Nc2cc(S(=O)(=O)Nc3ccc(OC)cc3)ccc2OC)cc1`, the figures for the activity change in assay [1] and in assay [2] were -12% and -9.85%, respectively. For `COc1ccc(Cl)cc1NC(=O)CN(C)CC(=O)Nc1ccccc1-c1ccccc1` the same measures were -38.7% and 3.44%. For `CS(=O)(=O)c1cccc(C(=O)Nc2cccc(-c3nc4ccccc4[nH]3)c2)c1` the same measures were -47.2% and 27.4%.

In the case of `O=C(NC1CCCC1)c1ccc([N+](=O)[O-])s1`, the activity change in assay [1] is -21%.
